These are yes or no findings as the source states them, for the method shown. Binding seen in cells or lysates may run through a third protein. Some entries that bind do so weakly or less than the wild type.
What was measured:
[1] = target: T1, PPP2R2A, regulatory subunit (PP2A B) of the PP2A holoenzyme (human (endogenous in MCF-10A)) (UniProt P63151); test: co-IP; MCF-10A AKT1^E17K cells, control and SVIL-AS1 knockdown; IP with PPP2R2A antibody and reciprocal IP with AKT1 antibody, followed by western blot
T1 sequence: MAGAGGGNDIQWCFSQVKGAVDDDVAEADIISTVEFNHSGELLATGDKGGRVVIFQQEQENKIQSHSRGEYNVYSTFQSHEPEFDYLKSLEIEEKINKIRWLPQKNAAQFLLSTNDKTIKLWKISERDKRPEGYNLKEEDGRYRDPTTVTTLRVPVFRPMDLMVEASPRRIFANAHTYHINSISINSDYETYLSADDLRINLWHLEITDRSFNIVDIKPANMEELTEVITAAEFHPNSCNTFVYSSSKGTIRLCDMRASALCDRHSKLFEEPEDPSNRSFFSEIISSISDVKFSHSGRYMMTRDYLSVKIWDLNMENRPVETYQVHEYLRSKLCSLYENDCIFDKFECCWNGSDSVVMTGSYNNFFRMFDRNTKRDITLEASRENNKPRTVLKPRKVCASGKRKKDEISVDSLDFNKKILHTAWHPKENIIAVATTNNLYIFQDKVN

Protein sequences, listed by entry. Tags and fused reporters are not part of them. Lines headed by an entry give the natural chain unless they say otherwise; changes in a name come on top.
UniProt P31749: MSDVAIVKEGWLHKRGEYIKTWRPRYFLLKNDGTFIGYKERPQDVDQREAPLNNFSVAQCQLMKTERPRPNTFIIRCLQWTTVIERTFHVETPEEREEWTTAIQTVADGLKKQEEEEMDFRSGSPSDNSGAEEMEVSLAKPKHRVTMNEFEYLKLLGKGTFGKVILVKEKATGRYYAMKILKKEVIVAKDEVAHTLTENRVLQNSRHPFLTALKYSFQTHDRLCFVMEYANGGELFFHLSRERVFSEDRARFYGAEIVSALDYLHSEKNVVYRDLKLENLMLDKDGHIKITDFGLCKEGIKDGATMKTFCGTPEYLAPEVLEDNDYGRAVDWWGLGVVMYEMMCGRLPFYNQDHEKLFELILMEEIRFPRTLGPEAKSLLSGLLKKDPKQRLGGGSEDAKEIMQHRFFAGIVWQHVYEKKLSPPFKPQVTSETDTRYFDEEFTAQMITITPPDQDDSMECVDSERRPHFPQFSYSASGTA

[2] = target: AKT1 of MCF-10A AKT1^E17K knock-in cells (human (endogenous in MCF-10A AKT1^E17K)) (UniProt P31749); test: as above

## AKT1 of MCF-10A AKT1^E17K knock-in cells (from UniProt P31749 1-480) (enzyme)
[1]
  binding: binds

B1: PPP2R2A, regulatory subunit (PP2A B) of the PP2A holoenzyme (protein, UniProt P63151 1-447)
chain: MAGAGGGNDIQWCFSQVKGAVDDDVAEADIISTVEFNHSGELLATGDKGGRVVIFQQEQENKIQSHSRGEYNVYSTFQSHEPEFDYLKSLEIEEKINKIRWLPQKNAAQFLLSTNDKTIKLWKISERDKRPEGYNLKEEDGRYRDPTTVTTLRVPVFRPMDLMVEASPRRIFANAHTYHINSISINSDYETYLSADDLRINLWHLEITDRSFNIVDIKPANMEELTEVITAAEFHPNSCNTFVYSSSKGTIRLCDMRASALCDRHSKLFEEPEDPSNRSFFSEIISSISDVKFSHSGRYMMTRDYLSVKIWDLNMENRPVETYQVHEYLRSKLCSLYENDCIFDKFECCWNGSDSVVMTGSYNNFFRMFDRNTKRDITLEASRENNKPRTVLKPRKVCASGKRKKDEISVDSLDFNKKILHTAWHPKENIIAVATTNNLYIFQDKVN
[2]
  binding: binds

Source: article PMC12097031
